PubChem BioAssay AID1259254 – NCATS, 2017

Assay: 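Finding genes that stop cells copying their DNA twice in one cycle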 (primary screen)
Cell system: human HCT116 colorectal cancer cells
Reagent: single siRNA against human genes
Duration: 3 days
Read-out: 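Nuclei stained with Hoechst and imaged; cell-cycle phase assigned by DNA content; G2 share scaled per plate, non-targeting siRNA 0%, GMNN siRNA 100%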
Scale: G2 robust z-score and G2 cells, % of GMNN control: higher = more G2 cells, more excess DNA replication
Call rule: 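Active siRNAs have a G2 robust z of 5 or more median absolute deviations over the median, which in these data means about 38% or higher of GMNN control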
Here is a random part of about 59,000 deposited reagents. About 1,550 of them (2.6%) count as active. 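G2 share is only a proxy for re-replication; each gene was hit by three separate siRNAs, and active genes were retested.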 Reagents against one gene are numbered here. Further read-outs or replicates are left out here. Not stated in the record: the amount of reagent.

Gene	reagent no.	G2 robust z-score	G2 cells, % of GMNN control	Call
NALF2 (GeneID 27112)	1	-0.727	-2.15	inactive
NALF2 (GeneID 27112)	2	2.5	20.6	inactive
NALF2 (GeneID 27112)	3	0.572	6.99	inactive
ZFYVE28 (GeneID 57732)	1	0.339	5.35	inactive
ZFYVE28 (GeneID 57732)	2	-1.02	-4.21	inactive
ZFYVE28 (GeneID 57732)	3	1.13	10.9	inactive
YME1L1 (GeneID 10730)	1	2.19	18.3	inactive
YME1L1 (GeneID 10730)	2	-0.361	0.426	inactive
YME1L1 (GeneID 10730)	3	-0.686	-1.86	inactive
OIT3 (GeneID 170392)	1	-0.526	-0.733	inactive
OIT3 (GeneID 170392)	2	-0.216	1.44	inactive
OIT3 (GeneID 170392)	3	-0.2	1.56	inactive
ZNF510 (GeneID 22869)	1	0.209	4.44	inactive
ZNF510 (GeneID 22869)	2	-1.16	-5.17	inactive
ZNF510 (GeneID 22869)	3	-0.321	0.707	inactive
OR1G1 (GeneID 8390)	1	-0.197	1.58	inactive
OR1G1 (GeneID 8390)	2	-0.93	-3.57	inactive
OR1G1 (GeneID 8390)	3	-0.761	-2.39	inactive
LINC01521 (GeneID 54944)	1	0.658	7.6	inactive
LINC01521 (GeneID 54944)	2	0.393	5.73	inactive
LINC01521 (GeneID 54944)	3	-0.486	-0.449	inactive
EID2B (GeneID 126272)	1	-0.862	-3.1	inactive
EID2B (GeneID 126272)	2	-0.608	-1.31	inactive
EID2B (GeneID 126272)	3	-0.899	-3.36	inactive
DNTTIP2 (GeneID 30836)	1	7.11	53	active
DNTTIP2 (GeneID 30836)	2	-0.114	2.17	inactive
DNTTIP2 (GeneID 30836)	3	-0.107	2.22	inactive
DRAM2 (GeneID 128338)	1	-0.46	-0.269	inactive
DRAM2 (GeneID 128338)	2	-0.66	-1.68	inactive
DRAM2 (GeneID 128338)	3	0.247	4.7	inactive
IL36R (GeneID 8808)	1	1.55	13.8	inactive
IL36R (GeneID 8808)	2	-1.17	-5.27	inactive
IL36R (GeneID 8808)	3	0.164	4.12	inactive
SHE (GeneID 126669)	1	0.646	7.51	inactive
SHE (GeneID 126669)	2	-0.00835	2.91	inactive
SHE (GeneID 126669)	3	1.06	10.4	inactive
ZNF559 (GeneID 84527)	1	-0.439	-0.118	inactive
ZNF559 (GeneID 84527)	2	-0.621	-1.4	inactive
ZNF559 (GeneID 84527)	3	-0.656	-1.65	inactive
ZNF337 (GeneID 26152)	1	-0.631	-1.47	inactive
ZNF337 (GeneID 26152)	2	1.11	10.8	inactive
ZNF337 (GeneID 26152)	3	-0.281	0.992	inactive
CFB (GeneID 629)	1	-0.915	-3.47	inactive
CFB (GeneID 629)	2	0.563	6.93	inactive
CFB (GeneID 629)	3	-0.297	0.878	inactive
P2RY6 (GeneID 5031)	1	0.476	6.32	inactive
P2RY6 (GeneID 5031)	2	3.75	29.4	inactive
P2RY6 (GeneID 5031)	3	0.238	4.64	inactive
DISP2 (GeneID 85455)	1	0.207	4.42	inactive
DISP2 (GeneID 85455)	2	1.62	14.3	inactive
DISP2 (GeneID 85455)	3	0.115	3.77	inactive
SNTB1 (GeneID 6641)	1	-0.106	2.22	inactive
SNTB1 (GeneID 6641)	2	-0.623	-1.42	inactive
SNTB1 (GeneID 6641)	3	-0.43	-0.0548	inactive
KRR1 (GeneID 11103)	1	4.18	32.4	inactive
KRR1 (GeneID 11103)	2	3.94	30.7	inactive
KRR1 (GeneID 11103)	3	0.0709	3.47	inactive
UPB1 (GeneID 51733)	1	0.233	4.61	inactive
UPB1 (GeneID 51733)	2	3.23	25.7	inactive
UPB1 (GeneID 51733)	3	-0.418	0.0277	inactive
BEND7 (GeneID 222389)	1	-1.17	-5.27	inactive
BEND7 (GeneID 222389)	2	-0.224	1.39	inactive
BEND7 (GeneID 222389)	3	-0.257	1.16	inactive
AZIN1 (GeneID 51582)	1	1.41	12.9	inactive
AZIN1 (GeneID 51582)	2	1.6	14.2	inactive
AZIN1 (GeneID 51582)	3	-0.791	-2.6	inactive
YDJC (GeneID 150223)	1	-0.312	0.771	inactive
YDJC (GeneID 150223)	2	-0.466	-0.312	inactive
YDJC (GeneID 150223)	3	1.1	10.7	inactive

Part of the list above, limited to “G2 cells, % of GMNN control”:
YME1L1 (GeneID 10730) #1: 18.3
YME1L1 (GeneID 10730) #2: 0.426
YME1L1 (GeneID 10730) #3: -1.86
OIT3 (GeneID 170392) #1: -0.733
OIT3 (GeneID 170392) #2: 1.44
OIT3 (GeneID 170392) #3: 1.56
